Source: patent US20230149507A1, “TREATMENT OF ALT CANCERS” (INSTITUTO DE MEDICINA MOLECULAR JOÃO LOBO ANTUNES, priority 2019, published 2023)
These are yes or no findings as the source states them, for the method shown. Binding seen in cells or lysates may run through a third protein. Some results given as binding are weak or reduced against the parent protein; the word gives no strength.

Sequences of proteins named here, by UniProt entry; tags and fusion partners are left off. A change or cut given only in a name is not applied to a line headed by its entry.
UniProt P54132: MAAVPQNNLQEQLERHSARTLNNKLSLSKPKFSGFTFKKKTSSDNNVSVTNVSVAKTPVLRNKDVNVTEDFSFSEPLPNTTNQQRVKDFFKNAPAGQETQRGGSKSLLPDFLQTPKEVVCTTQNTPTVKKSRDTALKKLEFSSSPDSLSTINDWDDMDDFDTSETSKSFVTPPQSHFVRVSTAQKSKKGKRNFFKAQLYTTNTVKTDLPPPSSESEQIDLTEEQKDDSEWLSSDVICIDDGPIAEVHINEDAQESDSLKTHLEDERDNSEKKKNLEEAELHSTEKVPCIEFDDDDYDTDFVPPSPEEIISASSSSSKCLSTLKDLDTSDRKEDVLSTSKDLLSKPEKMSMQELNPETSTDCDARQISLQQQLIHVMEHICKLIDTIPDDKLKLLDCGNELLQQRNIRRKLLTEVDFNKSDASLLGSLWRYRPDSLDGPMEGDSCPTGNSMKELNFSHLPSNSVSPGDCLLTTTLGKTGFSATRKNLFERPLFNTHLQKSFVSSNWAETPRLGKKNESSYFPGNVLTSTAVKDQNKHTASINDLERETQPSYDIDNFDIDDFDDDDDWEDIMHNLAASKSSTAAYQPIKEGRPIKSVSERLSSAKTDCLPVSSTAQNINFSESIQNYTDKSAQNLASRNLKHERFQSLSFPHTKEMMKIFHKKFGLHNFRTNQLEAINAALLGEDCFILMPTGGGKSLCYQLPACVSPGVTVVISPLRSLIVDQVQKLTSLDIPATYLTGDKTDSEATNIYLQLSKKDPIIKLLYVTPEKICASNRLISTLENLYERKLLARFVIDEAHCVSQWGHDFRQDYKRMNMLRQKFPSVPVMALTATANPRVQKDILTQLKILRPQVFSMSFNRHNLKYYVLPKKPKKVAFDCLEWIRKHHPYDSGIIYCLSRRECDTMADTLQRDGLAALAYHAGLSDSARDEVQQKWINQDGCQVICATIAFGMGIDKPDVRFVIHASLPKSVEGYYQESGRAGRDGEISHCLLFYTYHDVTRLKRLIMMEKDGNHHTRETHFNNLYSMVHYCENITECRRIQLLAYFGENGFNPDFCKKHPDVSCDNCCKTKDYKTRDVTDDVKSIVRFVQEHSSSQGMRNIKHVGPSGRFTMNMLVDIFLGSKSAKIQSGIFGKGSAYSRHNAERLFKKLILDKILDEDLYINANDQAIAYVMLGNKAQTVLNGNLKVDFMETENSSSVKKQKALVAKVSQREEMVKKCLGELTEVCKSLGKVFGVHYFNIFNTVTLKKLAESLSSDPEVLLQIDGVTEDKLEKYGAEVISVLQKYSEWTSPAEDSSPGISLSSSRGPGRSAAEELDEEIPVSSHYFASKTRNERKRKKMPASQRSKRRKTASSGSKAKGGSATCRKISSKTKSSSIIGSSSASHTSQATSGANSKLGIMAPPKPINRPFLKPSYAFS

Experiments:
[1] = molecular target: T1, BLM-TOP3A-RMI (BTR) complex (human, UniProt P54132 1-1417; Q13472 1-1001; Q9H9A7 1-625; Q96E14 2-147, limits assumed); test: competition co-IP: peptide added to cellular lysates, Flag-FANCM IP
T1 construct: Endogenous complex in cell lysates (BLM, TOP3A, RMI1, RMI2); In the co-IPs it is read out by TOP3A and/or RMI1 immunoblot

[2] = molecular target: T1, BLM-TOP3A-RMI (BTR) complex; test: competition co-IP: peptide added to HEK-293 Flag-FANCM lysate, Flag IP, TOP3A immunoblot
Description: For co-IP experiments involved the ER-inducible system, cells were lysed in IP buffer (20 mM Tris-HCl pH 7.5, 100 mM NaCl, 10% (v/v) glycerol, 0.5 mM EDTA, 1 mM DTT) supplemented with 1× mammalian protease inhibitor cocktail (Sigma Aldrich) and 50 U/ml Benzonase (Novagen) for 2 h at 4° C., with or without MM2 peptide variants (Mimotopes). Following lysis, NaCl concentration was increased to 250 mM, then the lysate cleared at 16,000×g for 15 mins. Supernatant was then mixed with 1 μg of α-FANCM (Abcam) or α-ER (Santa Cruz Biotechnology) and 20 μl protein G sepharose (GE Healthcare), or using α-Flag M2 agarose (Sigma Aldrich). Following 3 h of mixing at 4° C., beads were washed 4× with IP buffer, and 1× with 50 mM NH₄(CO₃)₂, 0.5 mM EDTA, then eluted with 500 mM NH₄OH (pH 11.0), 0.5 mM EDTA. Samples were then lyophilized and resuspended in 1×LDS loading buffer (Life Technologies) prior to immunoblotting.
To explore the possibility of specifically targeting ALT cell viability through FANCM, two approaches to disrupt the FANCM-BTR complex were adopted. […] To investigate the effects of FANCM-BTR complex disruption in ALT cells, the MM2 peptide was rendered functionally dependent on tamoxifen by fusion to the C-terminus of the estrogen receptor (MM2-ER) (FIG. 11a). […]

With EDIFDCSRDLFSVTFDLGFCSPDSDDEILEHTSD [wildtype human FANCM MM2 peptide (chemically synthesized, 28 amino acids of the MM2 domain)] the binding [1] was “binds” and the binding [2] was “binds”.
